According to paper PMC9839843:
These are yes or no findings as the source states them, for the method shown. In cells and extracts the contact can be indirect. Some binding calls cover weakened binding; strength is not graded here.

Amino acid sequences for entries named in this document (tags omitted). A change or cut given only in a name is not applied to a line headed by its entry. Chains listed by the source or under a name are the forms on record and can include a tag or linker.
Escherichia coli-expressed GST-TRIP12 (Q14669, form named): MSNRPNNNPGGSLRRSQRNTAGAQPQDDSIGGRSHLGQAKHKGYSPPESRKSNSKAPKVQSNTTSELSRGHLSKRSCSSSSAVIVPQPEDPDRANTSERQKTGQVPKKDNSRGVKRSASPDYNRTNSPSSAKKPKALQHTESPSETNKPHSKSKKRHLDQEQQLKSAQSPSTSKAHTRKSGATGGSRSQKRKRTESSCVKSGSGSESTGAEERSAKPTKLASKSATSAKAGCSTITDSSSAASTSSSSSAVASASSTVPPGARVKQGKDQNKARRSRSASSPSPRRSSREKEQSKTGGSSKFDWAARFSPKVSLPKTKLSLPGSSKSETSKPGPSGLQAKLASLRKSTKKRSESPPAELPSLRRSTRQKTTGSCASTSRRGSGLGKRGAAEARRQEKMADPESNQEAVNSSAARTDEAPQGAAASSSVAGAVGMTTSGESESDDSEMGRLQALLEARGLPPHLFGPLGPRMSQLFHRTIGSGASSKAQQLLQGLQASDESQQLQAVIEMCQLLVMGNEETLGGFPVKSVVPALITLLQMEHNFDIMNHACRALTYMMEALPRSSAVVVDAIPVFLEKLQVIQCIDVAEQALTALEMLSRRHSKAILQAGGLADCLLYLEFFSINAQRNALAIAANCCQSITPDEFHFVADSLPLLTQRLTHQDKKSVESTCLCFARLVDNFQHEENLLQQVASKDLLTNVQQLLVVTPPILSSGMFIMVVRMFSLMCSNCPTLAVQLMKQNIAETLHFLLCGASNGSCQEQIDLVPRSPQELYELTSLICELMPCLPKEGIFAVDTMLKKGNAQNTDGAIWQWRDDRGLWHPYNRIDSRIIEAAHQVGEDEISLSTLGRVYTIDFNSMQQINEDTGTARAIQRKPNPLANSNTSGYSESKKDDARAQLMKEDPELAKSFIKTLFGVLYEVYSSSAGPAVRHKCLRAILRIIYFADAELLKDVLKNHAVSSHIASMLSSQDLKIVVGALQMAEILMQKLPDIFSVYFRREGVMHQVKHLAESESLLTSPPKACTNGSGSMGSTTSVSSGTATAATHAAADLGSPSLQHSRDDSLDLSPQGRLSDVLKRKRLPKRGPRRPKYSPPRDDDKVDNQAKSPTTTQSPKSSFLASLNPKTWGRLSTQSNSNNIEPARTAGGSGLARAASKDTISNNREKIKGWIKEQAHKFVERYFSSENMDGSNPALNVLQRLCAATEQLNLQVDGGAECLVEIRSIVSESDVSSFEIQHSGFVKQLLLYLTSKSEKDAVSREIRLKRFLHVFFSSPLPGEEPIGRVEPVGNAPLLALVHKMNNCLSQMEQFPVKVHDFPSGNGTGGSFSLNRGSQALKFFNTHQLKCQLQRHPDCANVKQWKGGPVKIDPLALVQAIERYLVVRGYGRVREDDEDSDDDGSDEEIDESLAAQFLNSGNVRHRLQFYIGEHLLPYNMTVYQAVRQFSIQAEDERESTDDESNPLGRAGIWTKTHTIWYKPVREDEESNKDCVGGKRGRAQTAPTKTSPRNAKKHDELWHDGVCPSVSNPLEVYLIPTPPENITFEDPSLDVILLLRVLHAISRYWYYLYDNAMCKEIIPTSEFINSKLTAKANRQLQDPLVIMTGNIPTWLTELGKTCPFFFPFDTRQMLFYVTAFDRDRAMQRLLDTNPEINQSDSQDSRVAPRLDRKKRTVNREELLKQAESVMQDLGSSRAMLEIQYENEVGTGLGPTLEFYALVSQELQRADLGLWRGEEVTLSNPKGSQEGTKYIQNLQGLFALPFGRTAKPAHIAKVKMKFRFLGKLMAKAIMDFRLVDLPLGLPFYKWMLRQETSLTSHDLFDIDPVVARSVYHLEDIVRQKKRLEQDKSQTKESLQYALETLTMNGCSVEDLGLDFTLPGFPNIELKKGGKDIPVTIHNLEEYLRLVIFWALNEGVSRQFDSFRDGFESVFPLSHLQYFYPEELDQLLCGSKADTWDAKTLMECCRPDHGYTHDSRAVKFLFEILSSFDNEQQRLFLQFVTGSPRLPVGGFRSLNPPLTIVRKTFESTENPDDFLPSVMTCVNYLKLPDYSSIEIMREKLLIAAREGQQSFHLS
UniProt P01106: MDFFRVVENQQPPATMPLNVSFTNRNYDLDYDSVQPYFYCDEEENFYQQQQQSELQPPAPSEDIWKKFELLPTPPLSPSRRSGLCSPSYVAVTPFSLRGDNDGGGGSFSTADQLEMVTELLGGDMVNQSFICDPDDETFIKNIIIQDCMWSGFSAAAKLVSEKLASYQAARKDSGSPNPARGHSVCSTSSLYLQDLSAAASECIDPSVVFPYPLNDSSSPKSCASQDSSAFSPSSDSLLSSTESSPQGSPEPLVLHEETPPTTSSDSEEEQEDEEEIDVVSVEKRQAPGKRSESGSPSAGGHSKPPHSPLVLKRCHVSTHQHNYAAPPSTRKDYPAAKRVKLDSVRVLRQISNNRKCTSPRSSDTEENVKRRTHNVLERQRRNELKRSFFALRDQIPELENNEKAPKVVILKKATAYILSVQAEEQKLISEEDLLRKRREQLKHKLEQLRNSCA
UniProt Q12962: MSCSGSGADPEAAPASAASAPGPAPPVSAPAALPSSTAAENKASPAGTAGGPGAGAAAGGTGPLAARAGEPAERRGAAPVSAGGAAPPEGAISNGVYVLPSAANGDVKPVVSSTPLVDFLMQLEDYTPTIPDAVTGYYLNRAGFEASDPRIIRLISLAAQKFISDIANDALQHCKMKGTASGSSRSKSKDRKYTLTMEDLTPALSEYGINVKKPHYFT

Experiments:
[1] = target: Escherichia coli-expressed GST-TRIP12 (human) (UniProt Q14669); test: pull-down; GST pulldown assay in vitro; Escherichia coli-expressed GST-TRIP12 as bait (told for Figure 8D)
[2] = target: GFP-labelled TRIP12 (human) (UniProt Q14669); test: co-IP; MCF7 cells transfected with tagged constructs; lysates incubated overnight at 4°C with antibodies and Protein A/G beads, then immunoblot; for Figures 7A,B and 8A,B cells were treated with Z363 (7.5 μg/ml) for 24 h
[3] = target: endogenous MYC (human (endogenous in MCF7)) (UniProt P01106); test: co-IP; endogenous proteins in MCF7 cell lysates; immunoprecipitation with IgG, anti-MYC, anti-TAF10 or anti-TRIP12 antibodies, then Western blotting

Substance | binding [1] | binding [2] | binding [3]
Flag-labelled TAF10 (from UniProt Q12962 1-218) | binds | binds | –
MYC (GST pulldown assay in vitro) (from UniProt P01106 1-454) | binds | – | –
endogenous TAF10 (from UniProt Q12962 1-218) | – | – | binds
